According to publication PMC12040169 (PLOS Biology, 2025):
Some of the results follow.

Test system: T1, CTL2-GFP (C. trachomatis L2/434/Bu, GFP-expressing)
T1 construct: L2/434/Bu, GFP-expressing
Parameters: species or system HeLa; Intracellular C. trachomatis growth in HeLa cells, bulk GFP fluorescence relative to DMSO
Conditions: bulk GFP, single well; 28.5 h, 10 µM; inhibitor

| Structure (SMILES) | % of control remaining [%] |
| --- | --- |
| NS(=O)(=O)c1ccc(/N=C/c2cccc(OCc3ccccc3)c2)cc1 [CBK261594] | 73.7748 |
| CC(=O)Nc1ccc(C(=O)N2CCNC(=O)C2Cc2ccccc2-c2cccc(C)c2)cc1 (centres unmarked) [CBK285837] | 113.505 |
| CCOc1cc(OCC)cc(C(=O)N2CCC3(CC2)CC(=O)c2ccc(OCC)c(C)c2O3)c1 [CBK168015] | 87.0683 |
| N#C/C(=C/c1ccc(-c2ccc(S(N)(=O)=O)cc2)o1)S(=O)(=O)c1ccc(Cl)cc1 [CBK266383] | 146.388 |
| Cc1ccc(S(=O)(=O)N2c3ccc(C(=O)O)cc3CC2C)cc1 (centres unmarked) [CBK286584] | 122.526 |
| CCOc1ccccc1OCC(=O)NN [CBK261782] | 106.559 |
| N=C(N)NCC(=O)N(CCc1cc(C(F)(F)F)cc(C(F)(F)F)c1)c1cccc2ccccc12 [CBK001122T] | 109.967 |
| CN1CCN(C(=O)CCn2c(C(F)(F)F)cc3cccnc32)CC1 [CBK284896] | 132.31 |
| Cc1cc2c(s1)c1cnn(CC(=O)N3CCCC3)c(=O)c1n2C [CBK284153] | 119.355 |
| OCCC1CNCCN1Cc1ccc(F)c(F)c1 (centres unmarked) [CBK269824] | 106.71 |
| O=C(NCc1ccncc1)OCCc1ccncc1 [CBK200133] | 116.299 |
| COCCN(C(=O)CSc1ccc2ccccc2n1)C1CCS(=O)(=O)C1 (centres unmarked) [CBK304988] | 100.647 |
| Cn1c2ccccc2c2nnc(SCCCC(=O)c3ccc4c(c3)OCCO4)nc21 [CBK268750] | 179.579 |
| Fc1cc(Br)c(CNCc2ccno2)c(N2CCCCC2)c1F [CBK304723] | 125.779 |
| Cc1ccc(SCC(=O)Nc2cc(C)on2)cc1 [CBK057070] | 96.813 |
| Cc1nc(-c2ccccc2)sc1C(=O)C1=C(O)C(=O)N(CCN2CCOCC2)C1c1ccccc1F (centres unmarked) [CBK266511] | 180.553 |
| Cn1ccnc1C1(O)CC2CCC(C1)N2C(=O)c1ccccc1F (centres unmarked) [CBK284085] | 128.103 |
| CCOC(=O)N1CCC(NS(=O)(=O)c2cc(C(=O)OC)n(C)c2)CC1 [CBK304688] | 135.969 |
| OC1(Cn2cnc3ccccc32)CCN(CCc2ccccc2)CC1 [CBK284789] | 146.516 |

Copied from the entries so far (two entries):

| Structure (SMILES) | % of control remaining [%] |
| --- | --- |
| Fc1cc(Br)c(CNCc2ccno2)c(N2CCCCC2)c1F [CBK304723] | 125.779 |
| Cc1ccc(SCC(=O)Nc2cc(C)on2)cc1 [CBK057070] | 96.813 |

Additional records follow.

| Structure (SMILES) | % of control remaining [%] |
| --- | --- |
| Cc1cnc(CNC(=O)N2CCN(c3cc(C(F)(F)F)ccn3)CC2)cn1 [CBK162320] | 135.922 |
| NC(=O)CSc1nnc2ccc3ccccc3n12 [CBK287794] | 71.2864 |
| Cc1ccc(NC(=O)CN2C(=O)S/C(=C\c3cc(C)n(-c4ccc(C(=O)O)cc4)c3C)C2=O)cc1 [CBK264465] | 100 |
| O=C(Nc1cc2ccccc2c(Br)n1)c1ccc(C(F)(F)F)cc1[N+](=O)[O-] [CBK063299] | 103.139 |
| Cc1cccnc1C(NC(=O)C1CCN(C/C=C/c2ccco2)CC1)c1ccc(Cl)cc1 (centres unmarked) [CBK148201] | 110.428 |
| Cc1nn2c(-c3cccc(NC(=O)CN4CCOCC4)c3)nnc2c2ccccc12 [CBK268383] | 155.139 |
| O=C(c1n[nH]c2ccccc12)N1CCc2ccccc21 [CBK200282] | 134.602 |
| O=C(Nc1ccc(Cc2ccncc2)cc1)c1ccc(-c2cc3ccccc3oc2=O)cc1 [CBK268952] | 89.7756 |
| Cc1cccc(-c2csc3c(=O)[nH]c(N4CCC(C(=O)NCCN(C)C)CC4)nc23)c1 [CBK215633] | 129.841 |
| CCS(=O)(=O)Nc1ccc(C2=NN(S(=O)(=O)c3ccc(F)cc3)C(c3ccccc3C)C2)cc1 (centres unmarked) [CBK269161] | 162.001 |
| CC(C)C[C@@H](C(=O)N1CCC(C(=O)O)CC1)n1c(=O)[nH]c2ccccc2c1=O [CBK286762] | 114.258 |
| Cn1nccc1C(=O)N[C@H]1C2CCCCC2[C@@H]1c1ccccc1 (some centres unmarked) [CBK285127] | 130.822 |
| Cc1cc(C)n(CCn2cc(-c3ncc[nH]3)nn2)c(=O)n1 [CBK307554] | 126.403 |
| COc1ccccc1Cc1cccc(C2CCCN2C(=O)Cc2c[nH]c3ccccc23)n1 (centres unmarked) [CBK286139] | 93.4963 |
| O=c1[nH]c(=O)c2cc(S(=O)(=O)Nc3ccccc3-c3ccccc3)ccc2[nH]1 [CBK286374] | 112.999 |
| Cc1cc(S(=O)(=O)Nc2ccccc2-c2nnnn2C(C)C)c(C)o1 [CBK306259] | 86.157 |
| CCOC(=O)c1cnn(C2CCCN(Cc3cccs3)C2)c1 (centres unmarked) [CBK305121] | 127.277 |
| Cc1cc(CNC(=O)CCc2c(C)nc3nc(N)nn3c2C)ccc1F [CBK306212] | 119.911 |
| CC(C)CNC(=O)c1cc([C@H]2CC[C@H](CNC(=O)Cn3cccn3)CC2)nc2ccccc12 [CBK285860] | 111.726 |
